Article PMC6885518

The chains behind the UniProt entries cited, without tags or fusion partners. Where a name states a change or a piece, a line headed by the entry shows the natural chain unless it says otherwise.
UniProt Q01097: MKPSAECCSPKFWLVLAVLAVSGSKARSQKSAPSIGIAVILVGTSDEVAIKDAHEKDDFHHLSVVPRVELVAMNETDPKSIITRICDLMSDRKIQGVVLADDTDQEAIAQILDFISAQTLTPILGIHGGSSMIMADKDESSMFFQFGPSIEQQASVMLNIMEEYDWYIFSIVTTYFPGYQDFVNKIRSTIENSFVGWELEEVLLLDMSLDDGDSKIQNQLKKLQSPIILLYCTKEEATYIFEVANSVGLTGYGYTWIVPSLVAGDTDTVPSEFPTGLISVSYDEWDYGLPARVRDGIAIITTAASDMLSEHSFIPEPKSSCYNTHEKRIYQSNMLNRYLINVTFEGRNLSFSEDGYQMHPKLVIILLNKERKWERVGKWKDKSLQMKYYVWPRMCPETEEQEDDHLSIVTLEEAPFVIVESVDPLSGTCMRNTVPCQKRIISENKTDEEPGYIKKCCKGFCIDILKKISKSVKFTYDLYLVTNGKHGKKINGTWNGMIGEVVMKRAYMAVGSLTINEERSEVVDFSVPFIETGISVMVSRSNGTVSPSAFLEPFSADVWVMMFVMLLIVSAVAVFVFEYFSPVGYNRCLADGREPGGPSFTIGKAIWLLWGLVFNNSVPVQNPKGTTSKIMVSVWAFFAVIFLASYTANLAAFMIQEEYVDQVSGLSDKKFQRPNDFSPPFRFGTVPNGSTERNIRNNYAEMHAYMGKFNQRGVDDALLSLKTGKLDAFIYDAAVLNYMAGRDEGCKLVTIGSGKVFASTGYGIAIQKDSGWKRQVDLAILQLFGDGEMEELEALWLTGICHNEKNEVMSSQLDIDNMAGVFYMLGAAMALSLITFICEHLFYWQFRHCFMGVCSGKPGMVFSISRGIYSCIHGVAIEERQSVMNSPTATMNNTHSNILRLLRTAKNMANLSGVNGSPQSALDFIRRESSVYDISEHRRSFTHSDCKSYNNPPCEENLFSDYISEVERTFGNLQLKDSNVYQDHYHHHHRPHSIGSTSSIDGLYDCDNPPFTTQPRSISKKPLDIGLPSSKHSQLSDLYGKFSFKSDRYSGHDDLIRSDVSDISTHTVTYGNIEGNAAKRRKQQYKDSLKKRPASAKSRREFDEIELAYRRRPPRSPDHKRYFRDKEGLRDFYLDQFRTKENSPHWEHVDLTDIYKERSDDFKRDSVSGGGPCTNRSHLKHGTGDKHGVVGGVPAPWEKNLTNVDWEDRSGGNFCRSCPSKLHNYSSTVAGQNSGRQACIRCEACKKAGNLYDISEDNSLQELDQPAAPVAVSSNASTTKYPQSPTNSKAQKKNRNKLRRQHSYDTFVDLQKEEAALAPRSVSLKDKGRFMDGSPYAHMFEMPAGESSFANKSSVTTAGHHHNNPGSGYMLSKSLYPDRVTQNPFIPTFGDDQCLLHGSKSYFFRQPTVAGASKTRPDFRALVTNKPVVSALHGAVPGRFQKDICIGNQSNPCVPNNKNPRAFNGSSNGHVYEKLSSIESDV
UniProt Q62083: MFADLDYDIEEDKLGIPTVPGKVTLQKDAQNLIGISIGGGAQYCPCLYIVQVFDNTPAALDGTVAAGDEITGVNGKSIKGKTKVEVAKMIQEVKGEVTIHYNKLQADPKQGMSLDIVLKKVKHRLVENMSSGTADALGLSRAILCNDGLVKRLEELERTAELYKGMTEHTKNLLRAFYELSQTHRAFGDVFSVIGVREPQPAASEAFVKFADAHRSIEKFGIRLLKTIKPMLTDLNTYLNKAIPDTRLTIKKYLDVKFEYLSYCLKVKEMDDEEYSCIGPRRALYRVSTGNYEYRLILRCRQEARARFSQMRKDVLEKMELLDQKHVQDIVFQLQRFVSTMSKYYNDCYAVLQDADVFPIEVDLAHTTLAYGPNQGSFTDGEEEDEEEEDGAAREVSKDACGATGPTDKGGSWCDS

Columns and labels:
[1] = target: NR2B-S2A (non-phosphorylatable derivative of NR2B), Flag-tagged (UniProt Q01097); test: co-IP; HEK293T cells co-transfected with NR2B-Flag (WT, S2A or S2E), PKCα-HA and PICK1-Myc, lysed 36 h after transfection (50 mM Tris-HCl pH 7.4, 1% Triton X-100, 1 mM EDTA, 10 mM NaF, 1 mM Na3VO4); IP with mouse anti-DDDDK, anti-HA or anti-Myc antibody or control IgG, 6 h at 4 °C, protein A/G agarose overnight; blots with rabbit anti-tag antibodies
[2] = target: NR2B-S2E (phosphorylation-mimicking derivative of NR2B), Flag-tagged (UniProt Q01097); test: as above

binding [1]: binds
binding [2]: binds
Substance: protein interacting with C kinase 1 (PICK1), Myc-tagged (from UniProt Q62083 1-416)

Results are given in words; binding and its absence hold for the method and conditions named. In cells and extracts the contact can be indirect. Binding calls can cover weak binding; strength is not graded here.
